1 sequence from PMC6117352 can be followed below.

Chains of the proteins cited; added tags and fusions are not shown. Residues count along the entry.
UniProt P03372, 181-552: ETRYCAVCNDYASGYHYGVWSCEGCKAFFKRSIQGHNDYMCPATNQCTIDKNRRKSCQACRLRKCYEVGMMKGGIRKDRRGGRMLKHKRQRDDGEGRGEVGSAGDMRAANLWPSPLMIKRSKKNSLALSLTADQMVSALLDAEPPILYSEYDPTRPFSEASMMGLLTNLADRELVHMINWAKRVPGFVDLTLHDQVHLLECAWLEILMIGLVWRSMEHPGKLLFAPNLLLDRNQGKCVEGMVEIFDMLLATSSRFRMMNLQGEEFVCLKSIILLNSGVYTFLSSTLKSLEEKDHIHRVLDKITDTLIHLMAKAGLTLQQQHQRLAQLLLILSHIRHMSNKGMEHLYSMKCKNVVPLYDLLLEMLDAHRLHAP

Construct, isoform or probe ends are uncertain for at least one entry. At least one verdict was read from the data and is not stated in words by the source.

The target of this data set is hERαCDE WT (Homo sapiens) (UniProt P03372). In words: SEC / SEC-SAXS. As to conditions: E2, TIF2 peptide, buffer B pH 9.5, SASBDB SASDDU8; recombinant protein; residues 181-552; protein details: His-tag (pMCSG7), removed by TEV.

As to “TAGGTACACGTGACCTGCG / CGCAGGTCACTGTGACCTA [ERE-DNA (hERαcomplex, as printed)]”, the binding result was “binds”.
